Experimental data from the supplement of paper PMC4962491.
± gives the standard deviation of the averaged measurements. Only a part is listed here, and it is no random draw. Single values are uncertain here, since repeats match poorly.

Test system: FaDu
Assay: mitochondrial oxygen consumption rate normalised to cell number, Z score over the library; higher = higher oxygen consumption (negative = OCR reduction)
Conditions: treatment time 24 h, assay medium: 5 mM galactose, 5 mM pyruvate, 4 mM glutamine
Procedure: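 Primary screen: FaDu cells were incubated 24 h with Pharmakon 1600 / TDI oncology set compounds at 2 or 10 uM. Mitochondrial-specific OCR (basal minus 2 uM antimycin A) was measured on a Seahorse XF96 in assay medium with 5 mM galactose, 5 mM pyruvate and 4 mM glutamine, then corrected for Hoechst cell number and expressed as a Z score […]. Compounds that cut cell number by >66% were excluded. Two repeats.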

Row | Structure (SMILES) | mitochondrial oxygen consumption rate normalised (2 µM) | mitochondrial oxygen consumption rate normalised (10 µM)
1 | COc1ccccc1N1CCN(CCCNc2cc(=O)n(C)c(=O)n2C)CC1 | 0.0156 ± 0.29 | 
2 | C#CCN(C)CCCOc1ccc(Cl)cc1Cl | -0.0262 ± 0.43 | 
3 | O=C(O)CN(CCN(CC(=O)O)CC(=O)O)CCN(CC(=O)O)CC(=O)O | 0.481 ± 0.11 | 
4 | CC(C)NCC(O)c1cc(O)cc(O)c1 (stereo not given) | 0.152 ± 1.4 | 
5 | C[C@H]1[C@H](OC(=O)CCC(=O)O)O[C@@H]2O[C@@]3(C)CC[C@H]4[C@H](C)CC[C@@H]1[C@@]24OO3 | 1.1 ± 0.053 | 
6 | CCC(C)n1ncn(-c2ccc(N3CCN(c4ccc(OCC5COC(Cn6cncn6)(c6ccc(Cl)cc6Cl)O5)cc4)CC3)cc2)c1=O (stereo not given) | -0.208 ± 0.73 | 
7 | Cc1cccc(Nc2ccccc2C(=O)O)c1C | -0.446 ± 0.57 | 
8 | C[n+]1ccccc1/C=N/O | -0.635 ± 0.26 | 
9 | O=C(O)CCNC(=O)c1ccc(/N=N/c2ccc(O)c(C(=O)O)c2)cc1 | -0.313 ± 0.38 | 
10 | CNCCCN1c2ccccc2CCc2ccccc21 | -0.0642 ± 0.67 | 
11 | O=C1OC(CN2CCOCC2)CN1/N=C/c1ccc([N+](=O)[O-])o1 (stereo not given) | 0.109 ± 0.11 | 
12 | CC[n+]1c(-c2ccccc2)c2cc(N)ccc2c2ccc(N)cc21 | -1.37 ± 0.39 | -2.32 ± 0.27
13 | O=C1CCC(N2C(=O)c3ccccc3C2=O)C(=O)N1 (stereo not given) | 1.07 ± 1.8 | 
14 | O=C1CCC(N2C(=O)c3ccccc3C2=O)C(=O)N1 (stereo not given) [Thalidomide] | 0.792 ± 0.42 | 
15 | CCCCc1nc(Cl)c(CO)n1Cc1ccc(-c2ccccc2-c2nnn[nH]2)cc1 | -0.0839 ± 0.9 | 
16 | CC1(C)S[C@@H]2[C@H](NC(=O)Cc3ccccc3)C(=O)N2[C@H]1C(=O)O | 0.945 ± 1.6 | -0.601 ± 0.075

Row | Structure (SMILES) | mitochondrial oxygen consumption rate normalised (2 µM) | mitochondrial oxygen consumption rate normalised (10 µM)
17 | C=CCCCCCCCCC(=O)O | -0.338 ± 0.15 | 
18 | CCOc1ccc(NC(=O)CC(C)O)cc1 (stereo not given) | -0.237 ± 0.6 | 
19 | CC(=O)OCC1=C(C(=O)O)N2C(=O)[C@@H](NC(=O)Cc3cccs3)[C@H]2SC1 | 0.0388 ± 0.96 | 
20 | CCN(CC)CCNC(=O)COc1ccc(OC)cc1 | 0.641 ± 0.26 | 
21 | O=C([O-])/C=C/C(=O)[O-].[Fe+2] | 0.641 ± 0.19 | -0.129 ± 0.31
22 | CCCOc1ccc(C(=O)OCCN(CC)CC)cc1N | 0.185 ± 0.49 | 
23 | CCN(CC)CCOCCOC(=O)C(CC)(CC)c1ccccc1 | -0.915 ± 0.26 | 
24 | CC[C@@H](CO)NCCN[C@@H](CC)CO | 0.46 ± 0.21 | 
25 | C=CCOC(Cn1ccnc1)c1ccc(Cl)cc1Cl (stereo not given) | -1.3 ± 0.86 | -0.834 ± 0.055
26 | CC1(C)[C@@H](OC(=O)CCC(=O)O)CC[C@]2(C)[C@H]3C(=O)C=C4[C@@H]5C[C@@](C)(C(=O)O)CC[C@]5(C)CC[C@@]4(C)[C@]3(C)CC[C@@H]12 | 0.704 ± 0.27 | 
27 | CC(CN(C)C)CN1c2ccccc2Sc2ccccc21 (stereo not given) | 0.905 ± 0.29 | 
28 | C#C[C@]1(O)CC[C@H]2[C@@H]3CCC4=CC(=O)CC[C@@H]4[C@H]3CC[C@@]21CC | -0.913 ± 0.55 | 
29 | CC(C)CCCC(C)NC(C)C (stereo not given) | 0.23 ± 0.68 | 
30 | N=C(N)NCCN1CCCCCCC1 | -0.9 ± 1.2 | 
31 | CC(=O)OCC(=O)[C@H]1CC[C@H]2[C@@H]3CCC4=CC(=O)CC[C@]4(C)[C@H]3CC[C@]12C | -0.445 ± 0.71 | 

Entries 1 through 5, reprinted for reference:
Row | Structure (SMILES) | mitochondrial oxygen consumption rate normalised (2 µM) | mitochondrial oxygen consumption rate normalised (10 µM)
1 | COc1ccccc1N1CCN(CCCNc2cc(=O)n(C)c(=O)n2C)CC1 | 0.0156 ± 0.29 | 
2 | C#CCN(C)CCCOc1ccc(Cl)cc1Cl | -0.0262 ± 0.43 | 
3 | O=C(O)CN(CCN(CC(=O)O)CC(=O)O)CCN(CC(=O)O)CC(=O)O | 0.481 ± 0.11 | 
4 | CC(C)NCC(O)c1cc(O)cc(O)c1 (stereo not given) | 0.152 ± 1.4 | 
5 | C[C@H]1[C@H](OC(=O)CCC(=O)O)O[C@@H]2O[C@@]3(C)CC[C@H]4[C@H](C)CC[C@@H]1[C@@]24OO3 | 1.1 ± 0.053 | 
